# Values joined by “and” are separate entries in the source; they are usually repeats but may differ in a detail not shown here. Equal values may be shown once. Out of some 580,000 compounds screened, about 6,100 (1.1%) were called active. This list was built around the results that the source calls inconclusive (neither active nor inactive); the mix of calls is not that of the screen. The call rests on the fitted dose curve; in most records, active means well fitted inhibition curve with a large enough effect; inconclusive means small, poorly fitted or top-dose-only effect, or another doubt; inactive means no such curve, though single readings can be large or run the other way. Potencies beside an inconclusive call are fits to weak or partial responses and may not hold up.
# The chains behind the UniProt entries cited, without tags or fusion partners. Where a name states a change or a piece, a line headed by the entry shows the natural chain unless it says otherwise.
# UniProt P18054: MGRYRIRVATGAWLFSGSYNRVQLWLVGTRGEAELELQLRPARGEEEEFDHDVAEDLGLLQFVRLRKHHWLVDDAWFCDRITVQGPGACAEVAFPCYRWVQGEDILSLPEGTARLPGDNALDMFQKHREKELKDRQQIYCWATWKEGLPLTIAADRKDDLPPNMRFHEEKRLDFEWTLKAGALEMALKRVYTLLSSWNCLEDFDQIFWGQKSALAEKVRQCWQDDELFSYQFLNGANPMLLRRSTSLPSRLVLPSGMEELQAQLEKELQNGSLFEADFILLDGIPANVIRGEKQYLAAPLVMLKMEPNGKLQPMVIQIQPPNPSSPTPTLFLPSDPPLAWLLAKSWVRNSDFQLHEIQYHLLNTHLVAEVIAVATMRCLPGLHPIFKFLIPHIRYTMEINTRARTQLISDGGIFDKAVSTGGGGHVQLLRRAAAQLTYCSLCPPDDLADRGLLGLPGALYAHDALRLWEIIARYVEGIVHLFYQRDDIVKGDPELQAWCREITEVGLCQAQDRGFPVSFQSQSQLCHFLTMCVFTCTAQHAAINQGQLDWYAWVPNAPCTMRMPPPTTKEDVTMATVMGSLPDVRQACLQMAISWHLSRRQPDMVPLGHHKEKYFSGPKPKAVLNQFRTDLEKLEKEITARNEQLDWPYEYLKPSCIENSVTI
# Molecular target: Polyunsaturated fatty acid lipoxygenase ALOX12 (Homo sapiens) (UniProt P18054)
# Test: Primary qHTS assay for inhibitors of human arachidonate 12S-lipoxygenase (ALOX12): Round 2
# Conditions: purified 12hLO, xylenol orange hydroperoxide absorbance; activity change, negative = inhibition: at 108 µM (top of the series) unless noted
# In short: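 Purified human 12hLO at 150 nM in 25 mM Hepes, 0.01% Triton X-100, pH 7.0, preincubated 15 min at room temperature with compound. Reaction started with 40 uM arachidonic acid, 30 min at room temperature. Hydroperoxide measured by Fe-xylenol orange, 573/405 nm absorbance ratio.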
# On the % scale 0 is the no-effect control and ±100 the full control effect; potency means the concentration at half of the fitted maximal effect.
Structure (SMILES),Potency,"activity change, negative = inhibition"
O=c1c2c3c(sc2nnn1Cc1ccc(Br)cc1)CCCC3,"inconclusive: 89.1 µM [inhibitor, partial curve, poor fit]",–
CCOC(=O)c1ccc(NC(=O)CCc2c(C)nc3c(c(C)nn3C)c2C)cc1,"inconclusive: 44.7 µM [inhibitor, partial curve, poor fit]",–
Nc1[nH]c(C(=O)c2ccccc2)c(-c2ccc(Br)cc2)c1C(=O)c1cccs1,active: 39.8 µM,–
CCc1cccc(CC)c1NC(=O)Cn1cnc2c1c(=O)n(C)c(=O)n2C,–,inactive: -41.9%
CCOc1ccccc1NC(=O)Cn1c(=O)ccc2cc(S(=O)(=O)N3CCC(C)CC3)ccc21,"inconclusive: 126 µM [inhibitor, single point]",–
COc1ccc(Cc2nc3ccc(C(=O)NC(C)Cc4ncccc4C)cc3o2)cc1OC (centres undefined),–,inactive: 4.62%
O=C(O)c1cc(-c2ccco2)nc2c(Cl)cccc12,"inconclusive: 12.6 µM [inhibitor, full curve, poor fit]",–
COc1ccc(/C=N/NC(=O)C(O)(CC(C)C)CC(C)C)cc1,–,inactive: -6.96%
OCC(O)CN1CCCC1 (centres undefined),"inconclusive: 2.51 µM [inhibitor, full curve, poor fit]",–
Cc1nc(N)sc1-c1csc(Nc2ccc(Cl)cn2)n1,"inconclusive: 50.1 µM [inhibitor, partial curve]",–
Cc1ccc(S(=O)(=O)N2CCN(C3CCN(Cc4cccnc4)C3=O)CC2)cc1C (centres undefined),"inconclusive: 39.8 µM [inhibitor, single point]",–
OC(CC#CCN1CCCCCC1)(c1ccccc1)c1ccccc1,"inconclusive: 31.6 µM [inhibitor, partial curve]",–
C=CCNC(=O)NC(=O)CN(C)C(C)c1ccccc1OC (centres undefined),–,inactive: 25.5%
CCOc1ccc(Nc2nc(-c3ccc([N+](=O)[O-])cc3)nc3ccccc23)cc1,"inconclusive: 79.4 µM [inhibitor, single point]",–
CCCCN1C[C@H](CSC)[C@@H](CC(=O)NC)C1=O,"inconclusive: 39.8 µM [inhibitor, single point]",–
O=C(O)/C=C1\NC(=O)c2ccccc21,"inconclusive: 4.47 µM [inhibitor, full curve, poor fit]",–
COc1ccccc1OCC(=O)N(Cc1ccc(-c2ccc(Cl)cc2)o1)C1CCS(=O)(=O)C1 (centres undefined),"inconclusive: 11.2 µM [inhibitor, full curve, poor fit]",–
COc1ccc(-c2cnc(C)o2)cc1S(=O)(=O)Nc1ccc(C)c(F)c1,"active: 50.1 µM and inconclusive: 35.5 µM [inhibitor, partial curve, poor fit]",–
COc1ccc(N2C(=O)CSC23C(=O)N(CC(=O)Nc2ccccc2OC)c2ccccc23)cc1 (centres undefined),"inconclusive: 112 µM [inhibitor, partial curve, poor fit]",–
Cc1cccn2c(=O)c3cc(C(=O)O)n(C)c3nc12,"inconclusive: 3.16 µM [inhibitor, full curve, poor fit]",–
Cc1[nH]c2ccc(Cl)cc2c1CCNC(=S)NC(C)(C)C,"inconclusive: 44.7 µM [inhibitor, partial curve, poor fit]",–
O=C(COC(=O)Cn1cnc2ccccc21)NCCc1ccccc1,"inconclusive: 79.4 µM [inhibitor, partial curve, poor fit]",–

# As entered above.
# Value for `OC(CC#CCN1CCCCCC1)(c1ccccc1)c1ccccc1` under Potency: inconclusive: 31.6 µM [inhibitor, partial curve]
# Value for `C=CCNC(=O)NC(=O)CN(C)C(C)c1ccccc1OC` (centres undefined) under activity change, negative = inhibition: inactive: 25.5%

# Continuation.

Structure (SMILES),Potency,"activity change, negative = inhibition"
Cc1ccc(C)c(S(=O)(=O)Nc2ccc(O)c(C(=O)O)c2)c1,"inconclusive: 31.6 µM [inhibitor, partial curve, poor fit]",–
Cc1ccc(N=Nc2ccc(O)c3ncccc23)cc1,"inconclusive: 3.98 µM [inhibitor, full curve, poor fit]",–
CCCc1ccc(C(NC(=O)CCNC(=O)C(C)(C)C)C(C)C)cc1 (centres undefined),–,inactive: -31.2%
COc1ccc(N2CCN(CC(O)COc3ccc(C(C)(C)C)cc3)CC2)cc1 (centres undefined),"inconclusive: 10 µM [inhibitor, full curve]",–
CC(=O)OCCCNc1cc(Sc2ccc(Cl)cc2)c2nonc2c1[N+](=O)[O-],"inconclusive: 1.41 µM [inhibitor, full curve, poor fit]",–
O=C(c1ccc(C(F)(F)F)cc1)C1CCCN(C(=O)c2cnccn2)C1 (centres undefined),–,inactive: -22.5%
O=C1OC(Nc2ccc3c(c2)OCO3)c2ccccc21 (centres undefined),"inconclusive: 2.82 µM [inhibitor, full curve, poor fit]",–
CCC1Oc2ccc(NC(=O)COc3ccccc3)cc2CN(Cc2cc(F)cc(F)c2)C1=O (centres undefined),–,inactive: 1.16%
CCN(CC)C(=O)C1=C(C)N(Cc2ccc(F)cc2)C(=O)C(CC(=O)NCc2cccs2)C1 (centres undefined),"inconclusive: 141 µM [inhibitor, single point]",–
COc1cccc(N2C(=O)NC(=NC3CCCCC3)C23CCCN([S+](=O)([O-])c2cccc(C(F)(F)F)c2)C3)c1 (centres undefined),"inconclusive: 89.1 µM [inhibitor, single point]",–
Cc1ccc(Nc2nnc(SCC(=O)c3ccc(O)cc3O)s2)cc1,active: 44.7 µM,–
O=C(c1ccc2c(c1)C(=O)N(c1ccc(Cl)cc1)C2=O)N1CCN(c2ccccn2)CC1,"inconclusive: 100 µM [inhibitor, single point]",–
CC1(C)CC(=O)C2=C(C1)N=C1c3ccccc3C(=O)C1C2c1ccc(Cl)cc1 (centres undefined),"inconclusive: 79.4 µM [inhibitor, partial curve, poor fit]",–
O=C(c1cc(=O)c2ccccc2o1)N(Cc1ccccc1Cl)C1CCS(=O)(=O)C1 (centres undefined),–,inactive: -4.62%
CCCCC(=O)N(Cc1ccc2c(c1)OCO2)Cc1nc2ccccc2c(=O)[nH]1,"inconclusive: 2 µM [inhibitor, full curve, poor fit]",–
CCCC(=O)NCCc1ccc(F)cc1,"inconclusive: 50.1 µM [inhibitor, single point]",–
CCOC(=O)C1=C(C)NC(C)=C(C(=O)OCC)C1c1cccc([N+](=O)[O-])c1,"inconclusive: 100 µM [inhibitor, partial curve, poor fit]",–
O=C(OCCOc1ccccc1F)c1ccc2nccnc2c1,"inconclusive: 79.4 µM [inhibitor, partial curve, poor fit]",–
Oc1ccc(/C=N/Nc2ccc(Cl)nn2)c(O)c1O,"inconclusive: 7.94 µM [inhibitor, full curve, poor fit]",–
CCc1ccc(CN(C(=O)c2nc(SC)ncc2Cl)C2CCS(=O)(=O)C2)cc1 (centres undefined),–,inactive: -26.2%
Cc1ccc(Cl)cc1NC(=O)c1ccc(-c2nc(CSc3ccccc3)c(C)o2)cc1,–,inactive: -20%
CCCCC(CC)C1OCC(C[N+]2(C)CCOCC2)O1 (centres undefined),"inconclusive: 56.2 µM [inhibitor, single point]",–

Structure (SMILES),Potency,"activity change, negative = inhibition"
O=C1C=CC(=O)N1c1cccc2cccnc12,"inconclusive: 89.1 µM [inhibitor, partial curve, poor fit]",–
CCCCNC(=O)/C(C#N)=C/c1ccc(F)cc1F,"inconclusive: 8.91 µM [inhibitor, full curve]",–
N#C/C(=C\c1ccc(-c2ccc(Cl)cc2Cl)o1)c1nc2ccccc2[nH]1,active: 11.2 µM,–
COc1ccc(-c2csc(NC(=O)c3ccc(Cl)c(N4CCCC4=O)c3)n2)cc1F,"inconclusive: 141 µM [inhibitor, partial curve, poor fit]",–
CN(C)C(=O)c1ccc(-c2ccc3ncnc(N(C)Cc4ccco4)c3c2)cc1,"inconclusive: 7.94 µM [inhibitor, full curve]",–
CCCC(C(=O)NC(C)(C)CC)N(Cc1ccco1)C(=O)CNS(=O)(=O)c1ccccc1 (centres undefined),"inconclusive: 112 µM [inhibitor, partial curve, poor fit]",–
Cc1ccc(Oc2cc(NC(=O)CCCn3nc([N+](=O)[O-])cc3C)cc([N+](=O)[O-])c2)cc1,–,inactive: -2.5%
COc1cccc(C#Cc2cnc3c(c2)C(=O)N([C@@H](C)CO)C[C@H](C)[C@H](CN(C)C(=O)C2CCC2)O3)c1,"inconclusive: 31.6 µM [inhibitor, partial curve]",–
Cc1ccccc1C(=O)Nc1ccc2oc(-c3ccccc3C)cc(=O)c2c1,"inconclusive: 112 µM [inhibitor, single point]",–
O=S(=O)(c1ccc(Br)cc1)N1CCN(c2ccc(Nc3ccccc3)nn2)CC1,"inconclusive: 39.8 µM [inhibitor, partial curve, poor fit]",–
N#Cc1ccc(/C=N/Nc2ccccc2Cl)cc1,active: 10 µM,–
CC(C)C[C@@H]1Cc2[nH]c(=S)[nH]c(=O)c2[C@H](C)O1,"inconclusive: 100 µM [inhibitor, partial curve, poor fit]",–
O=C(Cc1ccc(Cl)cc1)N1CCC([C@@H]2CNC[C@H]2CO)CC1,–,inactive: 40.8%
CCc1ccc(OCC(=O)c2c(O)c3ccccc3oc2=O)cc1,"inconclusive: 39.8 µM [inhibitor, partial curve, poor fit]",–
CCCn1c(SCC(=O)N2CC(=O)Nc3ccccc32)n[nH]c1=O,"inconclusive: 89.1 µM [inhibitor, partial curve, poor fit]",–
O=C(O)CCCN1C(=O)/C(=C\c2ccco2)SC1=S,"inconclusive: 44.7 µM [inhibitor, partial curve, poor fit]",–
CCOC(=O)N1CCC(N2C(=O)c3ccccc3C2Nc2ccc3c(c2)OCCO3)CC1 (centres undefined),–,inactive: 240%
O=C(Cc1ccc(S(=O)(=O)N2CCCC2)s1)N1CCN(c2ccc(F)cc2)CC1,–,inactive: -11.7%
CSCCC(c1nnnn1-c1c(C)cccc1C)N1CCN(C/C=C/c2ccccc2)CC1 (centres undefined),"inconclusive: 70.8 µM [inhibitor, partial curve, poor fit]",–
Nc1nc(-c2ccco2)cs1,–,inactive: -7.84%

# 2 records drawn at random from the list so far:
Structure (SMILES),Potency,"activity change, negative = inhibition"
O=C(Cc1ccc(S(=O)(=O)N2CCCC2)s1)N1CCN(c2ccc(F)cc2)CC1,–,inactive: -11.7%
CCCCNC(=O)/C(C#N)=C/c1ccc(F)cc1F,"inconclusive: 8.91 µM [inhibitor, full curve]",–
